Assay results from article PMC8406200, “SAMase of Bacteriophage T3 Inactivates Escherichia coli’s Methionine S-Adenosyltransferase by Forming Heteropolymers” (mBio, 2021).
These are yes or no findings as the source states them, for the method shown. Tags and fused reporters may be left off the sequences shown.

Target: Neisseria gonorrhea MAT (Neisseria gonorrhea)
Test: dynamic light scattering; 2.85 μM MAT and 11.4 μM SAMase (1:4 ratio), Tris pH 8.0, 150 mM KCl, 1 mM DTT, 500 μM SAM, preincubated 30 min at room temperature; both purified

B1: S-Adenosylmethionine lyase (SAMase) of bacteriophage T3, C-terminal His-tagged (enzyme)
chain: MIFTKEPAHVFYVLVSAFRSNLCDEVNMSRHRHMVSTLRAAPGLYGSVESTDLTGCYREAISSAPTEEKTVRVRCKDKAQALNVARLACNEWEQDCVLVYKSQTHTAGLVYAKGIDGYKAERLPGSFQEVPKGAPLQGCFTIDEFGRRWQVQ
notes: S-adenosylmethionine lyase (SAMase) of bacteriophage T3, UniProt P07693; gene synthesized de novo with six His codons at the 3' end; anticipated monomer size around 17 kDa; Dimer by SEC, cross-linking and cryo-EM; also called T3 SAMase; 6×His-tagged SAMase; not shown: His6, C-terminal, kept
For B1, the binding was “no binding (tested: 2.85 μM MAT and 11.4 μM SAMase)”.
